Experimental data as given in paper PMC5004899, “Architecture of the caveolar coat complex” (Journal of Cell Science, 2016).
No constants are given. Whether binding was seen depends on the method and setting. Binding seen in cells or lysates may run through a third protein. Some binding calls cover weakened binding; strength is not graded here. Where a sequence is shown, tags or fusion partners need not be part of it.

Sequences of proteins named here, by UniProt entry; tags and fusion partners are left off.
UniProt Q03135: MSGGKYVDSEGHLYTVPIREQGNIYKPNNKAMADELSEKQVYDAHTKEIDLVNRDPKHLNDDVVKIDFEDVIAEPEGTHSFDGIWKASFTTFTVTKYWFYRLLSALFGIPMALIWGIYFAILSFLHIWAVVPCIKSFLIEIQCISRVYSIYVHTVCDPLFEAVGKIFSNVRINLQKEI

Molecular target: T1, cavin-3–EGFP-10×His (UniProt Q969G5)
T1 sequence: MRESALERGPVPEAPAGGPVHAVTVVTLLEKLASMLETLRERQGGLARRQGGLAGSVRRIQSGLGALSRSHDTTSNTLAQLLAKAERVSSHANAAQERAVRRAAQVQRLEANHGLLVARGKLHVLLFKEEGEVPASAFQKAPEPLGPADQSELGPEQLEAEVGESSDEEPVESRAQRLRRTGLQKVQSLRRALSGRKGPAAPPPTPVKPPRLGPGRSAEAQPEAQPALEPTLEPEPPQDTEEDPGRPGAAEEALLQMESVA
Assay: pull-down; live HeLa cells cross-linked with 2 mM DSP; lysate in 0.5% Triton X-100, 1% octyl-glucoside; 20-40% sucrose gradient, fractions 7-10 pooled; TALON metal affinity resin by the 10×His of cavin-3, 4 h at 4°C, eluted with 400 mM imidazole; fully reduced; silver staining and western blots

- binding: binds
Substance: caveolin-1 (from UniProt Q03135 1-178)
